Assay results published in the supplement of paper PMC6411743.
± gives the standard deviation of the averaged measurements. The list shows a part of the results, in another mix than the full data. Most entries show no effect beyond the scatter of the controls.

Sequences of proteins named here, by UniProt entry; tags and fusion partners are left off. A change or cut given only in a name is not applied to a line headed by its entry.
UniProt Q06945: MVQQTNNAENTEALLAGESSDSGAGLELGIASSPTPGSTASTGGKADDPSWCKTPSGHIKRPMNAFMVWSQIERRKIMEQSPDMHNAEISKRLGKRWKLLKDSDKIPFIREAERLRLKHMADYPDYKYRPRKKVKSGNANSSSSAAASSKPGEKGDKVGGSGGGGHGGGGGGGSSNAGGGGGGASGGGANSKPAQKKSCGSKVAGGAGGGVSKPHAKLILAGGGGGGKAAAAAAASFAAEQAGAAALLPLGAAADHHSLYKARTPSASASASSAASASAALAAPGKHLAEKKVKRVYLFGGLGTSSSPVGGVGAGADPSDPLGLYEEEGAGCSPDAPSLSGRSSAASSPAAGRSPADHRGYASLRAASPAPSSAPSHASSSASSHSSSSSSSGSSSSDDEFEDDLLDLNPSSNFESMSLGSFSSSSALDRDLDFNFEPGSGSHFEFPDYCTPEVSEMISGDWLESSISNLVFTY
UniProt Q01082, whole entry: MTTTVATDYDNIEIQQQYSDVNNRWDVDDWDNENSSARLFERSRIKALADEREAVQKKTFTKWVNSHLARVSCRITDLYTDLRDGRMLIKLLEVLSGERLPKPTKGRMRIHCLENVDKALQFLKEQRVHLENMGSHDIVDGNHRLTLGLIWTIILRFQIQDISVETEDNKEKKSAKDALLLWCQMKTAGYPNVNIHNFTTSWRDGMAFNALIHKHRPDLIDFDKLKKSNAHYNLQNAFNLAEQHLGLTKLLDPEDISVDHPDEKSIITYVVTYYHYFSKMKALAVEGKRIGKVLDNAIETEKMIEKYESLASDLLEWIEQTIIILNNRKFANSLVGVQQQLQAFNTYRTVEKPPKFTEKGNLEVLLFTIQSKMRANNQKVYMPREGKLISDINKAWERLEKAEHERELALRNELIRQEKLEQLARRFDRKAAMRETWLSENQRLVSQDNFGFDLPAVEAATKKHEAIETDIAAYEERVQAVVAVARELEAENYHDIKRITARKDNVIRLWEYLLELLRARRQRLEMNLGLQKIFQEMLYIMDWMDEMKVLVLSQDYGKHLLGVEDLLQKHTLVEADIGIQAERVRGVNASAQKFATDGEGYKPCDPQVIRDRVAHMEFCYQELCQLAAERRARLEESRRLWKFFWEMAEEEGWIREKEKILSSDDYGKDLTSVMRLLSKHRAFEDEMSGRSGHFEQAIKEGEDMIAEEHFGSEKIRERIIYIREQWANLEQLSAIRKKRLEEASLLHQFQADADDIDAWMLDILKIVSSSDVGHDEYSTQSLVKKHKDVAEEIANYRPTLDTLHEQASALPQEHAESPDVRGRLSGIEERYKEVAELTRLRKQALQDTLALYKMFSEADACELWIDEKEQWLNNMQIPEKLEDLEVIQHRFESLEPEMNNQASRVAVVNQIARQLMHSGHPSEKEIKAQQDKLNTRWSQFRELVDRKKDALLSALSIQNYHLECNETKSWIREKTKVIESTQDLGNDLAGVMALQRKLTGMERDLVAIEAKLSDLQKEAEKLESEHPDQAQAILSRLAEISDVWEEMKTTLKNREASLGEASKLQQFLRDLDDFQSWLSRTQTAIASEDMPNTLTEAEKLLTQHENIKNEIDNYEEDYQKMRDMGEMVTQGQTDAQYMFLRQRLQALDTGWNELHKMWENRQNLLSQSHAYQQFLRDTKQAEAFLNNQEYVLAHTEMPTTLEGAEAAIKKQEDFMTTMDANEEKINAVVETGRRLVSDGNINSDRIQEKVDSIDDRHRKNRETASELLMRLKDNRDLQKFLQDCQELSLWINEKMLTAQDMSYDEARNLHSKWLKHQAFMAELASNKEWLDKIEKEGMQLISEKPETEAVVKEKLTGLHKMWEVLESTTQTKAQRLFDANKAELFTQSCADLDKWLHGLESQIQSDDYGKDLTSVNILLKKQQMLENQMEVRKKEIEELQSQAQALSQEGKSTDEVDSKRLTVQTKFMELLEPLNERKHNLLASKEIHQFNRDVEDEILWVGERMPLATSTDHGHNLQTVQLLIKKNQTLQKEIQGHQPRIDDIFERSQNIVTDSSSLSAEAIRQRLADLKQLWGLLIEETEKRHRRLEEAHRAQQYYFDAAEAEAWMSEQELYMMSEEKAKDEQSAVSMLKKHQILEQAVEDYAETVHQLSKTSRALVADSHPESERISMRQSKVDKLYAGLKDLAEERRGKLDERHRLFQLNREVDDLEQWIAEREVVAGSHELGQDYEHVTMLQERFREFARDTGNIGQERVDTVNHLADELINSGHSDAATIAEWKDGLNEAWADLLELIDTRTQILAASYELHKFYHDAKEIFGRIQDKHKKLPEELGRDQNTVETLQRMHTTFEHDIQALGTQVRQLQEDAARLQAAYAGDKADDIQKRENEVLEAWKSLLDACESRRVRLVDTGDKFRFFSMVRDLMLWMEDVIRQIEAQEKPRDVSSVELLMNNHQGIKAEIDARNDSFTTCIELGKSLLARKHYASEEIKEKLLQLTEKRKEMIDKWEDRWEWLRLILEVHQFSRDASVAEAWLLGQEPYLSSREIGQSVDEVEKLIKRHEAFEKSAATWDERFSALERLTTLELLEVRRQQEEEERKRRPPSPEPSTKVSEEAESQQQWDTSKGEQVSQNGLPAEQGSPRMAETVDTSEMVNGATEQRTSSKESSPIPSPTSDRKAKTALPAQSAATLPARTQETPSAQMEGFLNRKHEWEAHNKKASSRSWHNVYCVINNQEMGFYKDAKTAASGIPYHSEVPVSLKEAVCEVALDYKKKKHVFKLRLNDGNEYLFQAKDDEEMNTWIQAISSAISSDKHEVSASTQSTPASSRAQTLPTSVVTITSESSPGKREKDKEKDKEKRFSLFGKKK
UniProt P67775, whole entry: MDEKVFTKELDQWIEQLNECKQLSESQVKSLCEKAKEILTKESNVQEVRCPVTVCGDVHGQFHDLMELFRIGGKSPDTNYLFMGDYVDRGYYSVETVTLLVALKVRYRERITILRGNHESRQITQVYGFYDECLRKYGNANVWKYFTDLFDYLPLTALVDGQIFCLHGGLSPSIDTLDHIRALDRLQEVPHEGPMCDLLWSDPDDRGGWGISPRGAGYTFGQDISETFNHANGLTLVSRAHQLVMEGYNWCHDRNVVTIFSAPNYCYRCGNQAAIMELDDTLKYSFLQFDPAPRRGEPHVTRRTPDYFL
UniProt P56159: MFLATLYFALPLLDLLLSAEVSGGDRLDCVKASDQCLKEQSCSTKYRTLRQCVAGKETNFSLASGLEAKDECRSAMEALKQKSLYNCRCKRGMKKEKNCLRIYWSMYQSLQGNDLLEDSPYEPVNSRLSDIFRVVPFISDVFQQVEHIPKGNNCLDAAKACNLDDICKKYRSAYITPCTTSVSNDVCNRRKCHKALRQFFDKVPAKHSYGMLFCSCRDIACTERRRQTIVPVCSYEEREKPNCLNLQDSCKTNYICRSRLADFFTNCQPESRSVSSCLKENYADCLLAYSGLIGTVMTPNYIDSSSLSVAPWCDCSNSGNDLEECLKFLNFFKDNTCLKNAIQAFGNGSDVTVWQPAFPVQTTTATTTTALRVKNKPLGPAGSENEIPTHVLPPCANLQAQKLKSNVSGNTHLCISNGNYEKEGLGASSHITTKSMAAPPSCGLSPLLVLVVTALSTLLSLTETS
UniProt P78347: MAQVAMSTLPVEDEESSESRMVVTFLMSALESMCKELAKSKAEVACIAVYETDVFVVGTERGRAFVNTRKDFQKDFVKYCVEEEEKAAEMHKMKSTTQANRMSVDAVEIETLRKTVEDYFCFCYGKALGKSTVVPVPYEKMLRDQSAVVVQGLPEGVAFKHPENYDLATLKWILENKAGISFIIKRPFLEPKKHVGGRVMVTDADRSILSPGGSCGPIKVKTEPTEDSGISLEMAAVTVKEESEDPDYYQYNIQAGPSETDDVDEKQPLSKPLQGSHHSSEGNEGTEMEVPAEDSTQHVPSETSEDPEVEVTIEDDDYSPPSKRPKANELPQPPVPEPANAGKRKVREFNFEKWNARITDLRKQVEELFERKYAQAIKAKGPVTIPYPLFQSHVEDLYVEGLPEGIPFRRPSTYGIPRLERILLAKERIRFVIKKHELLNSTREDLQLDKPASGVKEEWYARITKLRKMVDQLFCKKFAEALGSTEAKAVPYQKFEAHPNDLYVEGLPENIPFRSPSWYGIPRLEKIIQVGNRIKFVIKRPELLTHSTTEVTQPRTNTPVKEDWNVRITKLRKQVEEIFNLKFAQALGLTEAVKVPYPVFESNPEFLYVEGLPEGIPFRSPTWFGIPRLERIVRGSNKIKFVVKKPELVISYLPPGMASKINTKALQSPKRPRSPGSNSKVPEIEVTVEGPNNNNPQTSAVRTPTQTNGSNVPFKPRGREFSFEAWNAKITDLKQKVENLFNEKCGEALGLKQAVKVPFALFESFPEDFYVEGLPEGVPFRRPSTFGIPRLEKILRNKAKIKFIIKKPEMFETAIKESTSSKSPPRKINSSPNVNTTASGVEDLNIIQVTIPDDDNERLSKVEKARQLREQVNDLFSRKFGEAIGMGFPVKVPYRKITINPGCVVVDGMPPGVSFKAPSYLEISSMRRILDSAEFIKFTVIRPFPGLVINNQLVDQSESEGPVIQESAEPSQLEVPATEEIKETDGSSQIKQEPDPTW
UniProt P62136, whole entry: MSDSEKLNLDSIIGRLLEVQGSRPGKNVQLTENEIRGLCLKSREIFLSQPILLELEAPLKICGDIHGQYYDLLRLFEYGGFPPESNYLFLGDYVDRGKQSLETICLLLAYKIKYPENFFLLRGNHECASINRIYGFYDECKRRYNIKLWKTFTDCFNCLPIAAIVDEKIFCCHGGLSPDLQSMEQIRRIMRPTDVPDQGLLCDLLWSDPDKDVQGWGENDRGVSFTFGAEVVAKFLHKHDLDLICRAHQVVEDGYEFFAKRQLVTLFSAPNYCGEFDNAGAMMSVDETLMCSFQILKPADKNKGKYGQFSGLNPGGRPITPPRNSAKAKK
UniProt Q07817, whole entry: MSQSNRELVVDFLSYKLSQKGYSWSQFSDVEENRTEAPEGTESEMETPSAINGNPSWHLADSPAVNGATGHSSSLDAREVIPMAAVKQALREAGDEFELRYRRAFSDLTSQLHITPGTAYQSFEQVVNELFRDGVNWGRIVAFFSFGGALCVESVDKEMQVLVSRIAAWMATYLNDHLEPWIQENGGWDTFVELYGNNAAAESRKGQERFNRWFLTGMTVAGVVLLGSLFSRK
UniProt P62328: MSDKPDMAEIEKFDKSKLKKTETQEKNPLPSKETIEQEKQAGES
UniProt P61006: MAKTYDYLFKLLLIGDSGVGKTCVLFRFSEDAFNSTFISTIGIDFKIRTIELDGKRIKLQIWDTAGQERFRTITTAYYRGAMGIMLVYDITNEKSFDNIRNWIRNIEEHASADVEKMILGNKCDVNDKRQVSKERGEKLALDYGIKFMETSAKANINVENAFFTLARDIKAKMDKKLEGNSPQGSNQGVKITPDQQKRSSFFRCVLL
UniProt P62714, whole entry: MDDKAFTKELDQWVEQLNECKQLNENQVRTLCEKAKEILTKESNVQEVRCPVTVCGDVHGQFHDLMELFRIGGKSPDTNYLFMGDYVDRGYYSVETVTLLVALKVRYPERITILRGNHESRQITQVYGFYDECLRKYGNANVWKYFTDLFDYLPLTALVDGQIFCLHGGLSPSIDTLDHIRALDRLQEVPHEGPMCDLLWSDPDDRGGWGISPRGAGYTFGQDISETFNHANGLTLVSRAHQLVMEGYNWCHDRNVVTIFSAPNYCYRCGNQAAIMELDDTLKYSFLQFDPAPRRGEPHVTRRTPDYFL
UniProt P62820, whole entry: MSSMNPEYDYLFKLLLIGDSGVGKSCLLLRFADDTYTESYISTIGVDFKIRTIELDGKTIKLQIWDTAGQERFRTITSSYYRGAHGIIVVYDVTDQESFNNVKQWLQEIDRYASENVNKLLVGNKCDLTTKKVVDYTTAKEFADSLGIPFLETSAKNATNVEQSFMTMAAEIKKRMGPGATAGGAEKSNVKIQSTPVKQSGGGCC
UniProt P63313: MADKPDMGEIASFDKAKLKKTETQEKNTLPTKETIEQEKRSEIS
UniProt P55769: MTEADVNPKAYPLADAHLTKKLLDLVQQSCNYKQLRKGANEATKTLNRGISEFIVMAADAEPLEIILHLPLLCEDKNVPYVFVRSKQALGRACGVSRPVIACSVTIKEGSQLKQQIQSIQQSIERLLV
UniProt Q00325: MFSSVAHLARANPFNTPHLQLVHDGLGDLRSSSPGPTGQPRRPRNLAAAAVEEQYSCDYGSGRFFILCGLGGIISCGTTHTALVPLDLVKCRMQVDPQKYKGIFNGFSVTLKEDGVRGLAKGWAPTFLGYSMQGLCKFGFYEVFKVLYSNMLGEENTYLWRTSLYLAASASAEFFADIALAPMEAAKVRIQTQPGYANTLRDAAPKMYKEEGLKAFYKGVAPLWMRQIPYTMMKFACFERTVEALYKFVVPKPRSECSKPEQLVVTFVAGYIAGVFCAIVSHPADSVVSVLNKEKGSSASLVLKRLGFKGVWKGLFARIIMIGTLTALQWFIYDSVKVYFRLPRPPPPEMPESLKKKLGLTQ
UniProt P62314, whole entry: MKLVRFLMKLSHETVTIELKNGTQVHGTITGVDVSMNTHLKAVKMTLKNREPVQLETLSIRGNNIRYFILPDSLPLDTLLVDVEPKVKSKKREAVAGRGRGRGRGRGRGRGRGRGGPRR

Compound: Nc1ncnc2c1ncn2[C@@H]1O[C@H](COP(=O)(O)OP(=O)(O)NP(=O)(O)O)[C@@H](O)[C@H]1O [adenylyl imidodiphosphate]
Experiment: NP40-soluble protein abundance relative to vehicle (solubility fold change) (ratio); higher = more soluble protein in presence of AMP-PNP
Conditions: concentration: 0.1mM
In short: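 Each value is a fold change relative to the detergent-processed vehicle, calculated per replicate from vsn-normalised intensities. Jurkat crude lysate received eight concentrations (0.1 to 10 mM) for 10 min at room temperature and 3 min at 37 °C, then was solubilised in 0.8% NP40 with benzonase (60 min, 4 °C). The ultracentrifuged supernatant was TMT-labelled and run by LC-MS/MS in three independent experiments.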

Target	NP40-soluble protein abundance
KIF23 (UniProt Q02241)	1.02 ± 0.045
UniProt P62875	1.02 ± 0.025
UniProt Q02447-3|H0Y6K5 and related entries	1.01 ± 0.079
SOX4 (UniProt Q06945)	0.983 ± 0.046
SP4 (UniProt Q02446)	0.988 ± 0.038
UniProt Q01082 and related entries	0.9832 ± 0.0091
PPAT (UniProt Q06203)	1.02 ± 0.074
PPP2CA (UniProt P67775)	0.99 ± 0.017
UniProt P62753	1.057 ± 0.0091
UniProt P62140	1.06 ± 0.017
UniProt P56159 and related entries	0.968 ± 0.043
UniProt P78347 and related entries	0.999 ± 0.027
PPP1CA (UniProt P62136)	1.017 ± 0.0043
UniProt Q07817 and related entries	0.9988 ± 0.0018
UniProt P61927	0.994 ± 0.028
UniProt Q00613 and related entries	1.01 ± 0.045
TMSB4X (UniProt P62328)	1.01 ± 0.077
RAB8A (UniProt P61006)	0.975 ± 0.03
UniProt P62714	0.987 ± 0.036

Target	NP40-soluble protein abundance
UniProt Q04724 and related entries	0.987 ± 0.016
UniProt P61081	0.981 ± 0.011
DHX9 (UniProt Q08211)	1.11 ± 0.02
UniProt P82094 and related entries	0.993 ± 0.018
IGBP1 (UniProt P78318)	0.996 ± 0.049
SLC7A5 (UniProt Q01650)	0.98 ± 0.079
UniProt P62820	0.962 ± 0.038
FOXK2 (UniProt Q01167)	1.01 ± 0.022
ACY1 (UniProt Q03154)	1.05 ± 0.023
UniProt P63313	1.03 ± 0.017
UniProt P55769	1.03 ± 0.027
UniProt Q00325 and related entries	1.03 ± 0.059
UniProt P62310	0.987 ± 0.011
UniProt Q02224 and related entries	0.958 ± 0.0099
UniProt P78362 and related entries	0.935 ± 0.025
UniProt P62487	1.04 ± 0.064
NOP14 (UniProt P78316)	0.971 ± 0.012
UniProt P62314	1.023 ± 0.0087
RHOA (UniProt P61586)	0.9868 ± 0.0093

Same assay, conditions: concentration: 0.5mM

Target	NP40-soluble protein abundance
KIF23 (UniProt Q02241)	1.01 ± 0.011
UniProt P62875	1.04 ± 0.039
UniProt Q02447-3|H0Y6K5 and related entries	1.01 ± 0.098
SOX4 (UniProt Q06945)	1.03 ± 0.039
SP4 (UniProt Q02446)	0.99 ± 0.032
UniProt Q01082 and related entries	1.04 ± 0.029
PPAT (UniProt Q06203)	0.972 ± 0.14
PPP2CA (UniProt P67775)	1.03 ± 0.012
UniProt P62753	1.02 ± 0.047
UniProt P62140	1.02 ± 0.043
UniProt P56159 and related entries	1 ± 0.032
UniProt P78347 and related entries	1.03 ± 0.07
PPP1CA (UniProt P62136)	1.03 ± 0.015
UniProt Q07817 and related entries	0.977 ± 0.018
UniProt P61927	1.03 ± 0.029
UniProt Q00613 and related entries	1.02 ± 0.028
TMSB4X (UniProt P62328)	0.963 ± 0.095
RAB8A (UniProt P61006)	0.951 ± 0.026
UniProt P62714	1 ± 0.051

Target	NP40-soluble protein abundance
UniProt Q04724 and related entries	0.97 ± 0.039
UniProt P61081	1.01 ± 0.035
DHX9 (UniProt Q08211)	1.19 ± 0.093
UniProt P82094 and related entries	1 ± 0.064
IGBP1 (UniProt P78318)	0.991 ± 0.029
SLC7A5 (UniProt Q01650)	0.953 ± 0.046
UniProt P62820	0.989 ± 0.033
FOXK2 (UniProt Q01167)	0.972 ± 0.035
ACY1 (UniProt Q03154)	1 ± 0.055
UniProt P63313	0.993 ± 0.067
UniProt P55769	1.07 ± 0.032
UniProt Q00325 and related entries	1.02 ± 0.046
UniProt P62310	0.965 ± 0.026
UniProt Q02224 and related entries	0.998 ± 0.05
UniProt P78362 and related entries	0.952 ± 0.018
UniProt P62487	1.06 ± 0.087
NOP14 (UniProt P78316)	0.996 ± 0.049
UniProt P62314	1.03 ± 0.062
RHOA (UniProt P61586)	1.04 ± 0.072
